Laboratory results taken from PubChem BioAssay AID2685 (National Center for Advancing Translational Sciences (NCATS), 2010).
Some of the results follow. Shown are side measurements of this screen, not its main read-out; they come without a call. Most of these compounds were active or inconclusive in the main read-out, so they are no random draw. Potencies come from curve fits of mixed quality, noted in brackets.

Experiment: qHTS Assay for Lipid Storage Modulators in Drosophila S3 Cells;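 as to cell number change: cells counted by Cell Tracker Red CMTPX staining in the red channel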
Details: BODIPY lipid droplet fluorescence, 18-24 h; for cell number change: measured here: cell count max response, cells fed with added oleic acid
In short: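 Drosophila S3 cells got compounds at several concentrations plus oleic acid (400 uM solution). Laser-scanning cytometry with 488 nm excitation read lipid droplets at 500-530 nm and cells at 575-640 nm. Percent activity was relative to 20 uM Triacsin C.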

[1] = measured here: lipid fluorescence (Fed channel) AC50, cells fed with added oleic acid
[2] = measured here: cell number channel AC50, cells fed with added oleic acid

| Structure (SMILES) | cell number change | AC50 [1] | AC50 [2] |
| --- | --- | --- | --- |
| COC(=O)C1=C(C)N=C2SC(C#N)=C(N)N2C1c1ccc(OCc2ccccc2)cc1 (centres undefined) | 6.18% | 0.731 µM [rising, full curve] |  |
| O=C(COC(=O)COc1ccc(Cl)cc1)NCCNC(=O)COC(=O)COc1ccc(Cl)cc1 | -10.3% | 0.461 µM [falling, full curve, poor fit] |  |
| CN(Cc1nccn1C)C(=O)c1ccc(OC2CCN(CCc3ccccc3)CC2)cc1 | -10.2% |  | 1.84 µM [falling, partial curve] |
| Cc1cc(C)c(Cn2c3ccccc3c3cnn(CC(=O)NCCN4CCOCC4)c(=O)c32)c(C)c1 |  | 6.51 µM [rising, partial curve] |  |
| CC[n+]1c(/C=C/c2c[nH]c3ccccc23)ccc2cc(C)ccc21 | -93.8% |  | 6.51 µM [falling, full curve] |
| O=C(Nc1ccc2ccccc2c1)c1ccccc1O | 5.56% |  |  |
| N#Cc1nc(-c2ccc(OCc3ccc(Cl)cc3)cc2)oc1N1CCC(C(N)=O)CC1 | 7.22% | 0.00517 µM [falling, full curve, poor fit] |  |
| CCCOc1ccc(OCC(=O)c2[nH]c(C)c(C(C)=O)c2C)cc1 | 4.05% |  |  |
| CC(C)C(=O)N1CCN(c2ccc(NC(=O)COc3ccccc3[N+](=O)[O-])cc2)CC1 | -47.1% |  | 29.1 µM [falling, single point] |
| N#CCCN(CCC#N)C(=S)NC1CC2C=CC1C2 (centres undefined) | -42.3% | 16.4 µM [falling, single point] | 13 µM [falling, partial curve] |
| COc1ccc(-n2c(SCC#N)nnc2-c2cccnc2)cc1 |  | 2.91 µM [rising, partial curve] |  |
| CC1(c2ccccc2)NC(=O)N(CC(=O)N2CCN(S(=O)(=O)c3cccs3)CC2)C1=O (centres undefined) | 10.5% |  |  |
| COC(=O)C1=C(C)C(c2ccc(OC)cc2OC)NC(=O)N1 (centres undefined) | 4.95% | 6.51 µM [rising, single point] |  |
| O=C(c1cc(F)ccc1F)C1CCCN(Cc2cccn2-c2ccccn2)C1 (centres undefined) | 26.1% | 25.9 µM [rising, single point] |  |
| CCOc1cc(C(=O)NN=C2CCCC2)cc(OCC)c1OCC | -4.46% |  |  |
| O=C(Cn1nc(Cl)nc1Cl)c1ccc2c(c1)OCCO2 | -6.88% |  |  |
| Cc1nc(C#N)c(N/N=C/c2c(F)cccc2Cl)o1 | -5.38% | 2.31 µM [falling, single point] |  |
| CCCCC(=O)Nc1ccc(C(=O)N2CCCC(C(=O)OCC)C2)cc1 (centres undefined) |  | 6.51 µM [rising, single point] |  |
| Cc1c(C(=O)N2CCOCC2)c(S(=O)(=O)Nc2ccc(OC(F)(F)F)cc2)c(C)n1C | -17.4% | 1.3 µM [falling, full curve] |  |
| COc1cccc(CN(C)C(=O)CN2C(=O)NC3(CCCc4ccccc43)C2=O)c1 (centres undefined) | -31.1% |  | 29.1 µM [falling, single point] |
| CN(Cc1c(C(=O)N/N=C/c2ccc(O)cc2)nnn1-c1nonc1N)C1CCCCC1 | 93.5% |  | 29.1 µM [rising, single point] |

| Structure (SMILES) | cell number change | AC50 [1] | AC50 [2] |
| --- | --- | --- | --- |
| COc1ccc2c(c1OC)C(=O)N(c1cccc(NC(C)=O)c1)C2 | 4.63% | 2.31 µM [rising, partial curve] |  |
| Cc1ccnc(N/N=C/c2ccco2)n1 | -0.826% | 3.26 µM [rising, single point] |  |
| Cc1nn(C)cc1CNC(=O)C1CCC(=O)N(CC2CCCCC2)C1 (centres undefined) | 13.7% |  |  |
| CCOc1ccc(NS(=O)(=O)c2ccc(C(=O)NCCN3CCOCC3)cc2)cc1 | -13.6% | 0.82 µM [falling, full curve, poor fit] |  |
| O=C(O)COc1cccc(NC(=O)c2ccccc2)c1 | 3.73% | 0.0146 µM [falling, full curve, poor fit] |  |
| Cc1nn(-c2ccccc2)c(Cl)c1/C=N/NC(=O)c1ccc(CNc2ccccc2)o1 | -26.8% | 6.51 µM [rising, partial curve, poor fit] | 0.00517 µM [rising, full curve, poor fit] |
| Cc1cc(Br)cc(C)c1OCC(=O)NNC(=O)c1cccs1 | -30.4% | 25.9 µM [falling, single point] |  |
| CCC(C)CN1CCC(CO)(Cc2ccccc2Cl)CC1 (centres undefined) | -49% |  | 29.1 µM [falling, single point] |
| CC1CN(Cc2nc3c(c(=O)[nH]c(=O)n3C)n2CC(N)=O)CC(C)O1 (centres undefined) | 20% | 1.64 µM [rising, partial curve, poor fit] |  |
| O=C(CSc1nnc(NC(=O)c2ccco2)s1)NC1CCCCC1 | -18.8% | 2.59 µM [falling, partial curve] |  |
| CS(=O)(=O)N1CCC(C(=O)Nc2ccc(Cl)cc2)CC1 | -17.5% |  |  |
| COc1cccc(CNC(=O)CCC2CCCN(C(=O)c3ccccc3N(C)C)C2)c1 (centres undefined) | -5.28% | 29.1 µM [falling, single point] |  |
| Cc1ccc(C(=O)CN(C(=O)c2ccc(Cl)cc2)N2C(=O)CCC2=O)cc1 | -27.6% | 0.13 µM [falling, full curve, poor fit] | 0.092 µM [falling, full curve] |
| Cc1nnc(SCC(=O)NCC2CCCCC2)n(N)c1=O | 46.9% | 16.4 µM [rising, single point] | 6.51 µM [rising, full curve] |
| NS(=O)(=O)c1cccc(NC(=O)c2cccnc2Oc2ccccc2)c1 | 16.9% | 1.03 µM [falling, partial curve, poor fit] | 6.51 µM [falling, single point] |
| COC(=O)c1cc(C#N)c(N(C)Cc2ccccc2)nc1C | 14.2% | 18.4 µM [rising, partial curve] | 2.06 µM [rising, partial curve, poor fit] |
| O=C(NC1CCS(=O)(=O)C1)N1CCCCC1 (centres undefined) | -13.7% | 29.1 µM [falling, single point] | 7.31 µM [falling, single point] |
| Cc1nc2ccccc2c(=O)n1/N=C/c1c(O)ccc2ccccc12 | -22.3% | 1.46 µM [falling, partial curve] | 0.82 µM [falling, full curve, poor fit] |
| Cc1noc(C)c1Cn1nc(C(=O)O)c2ccccc2c1=O | 0.84% |  |  |
| CCCN(C(=O)COC(=O)CSc1ccc([N+](=O)[O-])cc1)C1CCS(=O)(=O)C1 (centres undefined) | -7.4% | 1.84 µM [rising, partial curve] |  |
| COc1ccccc1/C=C/C(=O)NCC(=O)N/N=C(/C)c1ccco1 | 2.94% |  |  |

| Structure (SMILES) | cell number change | AC50 [1] | AC50 [2] |
| --- | --- | --- | --- |
| CCCNC(=O)C/C(C)=N/NC(=O)COc1ccc(C)cc1Br | 7.69% |  |  |
| Cc1ccc(-n2c(C)nc3oc4ccccc4c(=O)c3c2=O)cc1 | -5.38% |  |  |
| Cc1sc2ncn(CC(=O)N(CC(=O)NC3CCCC3)Cc3cccs3)c(=O)c2c1C | -38.7% | 29.1 µM [falling, single point] | 29.1 µM [falling, single point] |
| CCCS(=O)(=O)N1CCCC(C(=O)NCCCN2CCN(c3ccccc3F)CC2)C1 (centres undefined) | 5.35% | 6.51 µM [rising, single point] |  |
| O=C1/C(=C/c2cccc(F)c2)CSc2sccc21 | -19.7% |  |  |
| COc1ccc(Nc2nc(-c3ccccc3)nc3ccccc23)cc1 | 17.1% | 13 µM [rising, partial curve] |  |
| CCN(CC)c1ccc(/C=C(/C#N)c2nc3ccccc3[nH]2)c(OC(C)C)c1 |  | 0.651 µM [falling, full curve] |  |
| N#Cc1c(SCc2c(Cl)cccc2Cl)nc(N)[nH]c1=S | -8.82% | 29.1 µM [falling, partial curve, poor fit] |  |
| Cc1ccc(OCC(=O)NCCN2CCOCC2)cc1C | 34% |  | 20.6 µM [rising, single point] |
| CCOP(=O)(OCC)/C(=N/OC(=O)c1ccc(OC)cc1)C(N)=O | -19.4% | 18.4 µM [falling, single point] |  |
| O=C(NC(=S)Nc1nc2c(s1)CCCC2)c1ccc(C(=O)c2ccccc2)cc1 | -17.7% | 1.84 µM [falling, partial curve, poor fit] | 0.82 µM [falling, full curve, poor fit] |
| CCSc1nc2sc3c(c2c(=O)n1-c1ccccc1)CCN(C)C3 | -12.6% |  |  |
| CCn1c(SCc2cccc(C)c2)nnc1-c1ccccc1 | -0.69% | 29.1 µM [falling, single point] | 6.51 µM [rising, single point] |
| COc1ccc(CCN2CC(C(=O)NCCc3cnn(C)c3)CCC2=O)cc1 (centres undefined) | 4.89% | 20.6 µM [rising, single point] |  |
| Cn1c(=O)[nH]c(=O)c2c1nc(NC1CCCCC1)n2CC(=O)NC1CCCCC1 |  | 0.517 µM [rising, full curve] | 0.461 µM [rising, full curve] |
| O=C(Nc1ccccc1C(=O)Nc1ccccc1C(=O)O)c1ccccc1 | 20.1% | 0.58 µM [rising, full curve, poor fit] |  |
| CCOC(=O)c1ccc(NC(=O)CSc2nc(SC)ns2)cc1 | -10.4% |  |  |
| O=C(O)/C=C/C(=O)Nc1cccnc1 | -17.2% | 0.231 µM [falling, partial curve, poor fit] |  |
| Cc1ccc(C(=O)N2CCCC(CCC(=O)N3CCN(c4ccccn4)CC3)C2)cc1 (centres undefined) | -34.6% | 6.51 µM [falling, single point] | 29.1 µM [falling, single point] |
| CC1CCCCC1NS(=O)(=O)CCNC(=O)c1ccc2c(c1)OCO2 (centres undefined) | -50% | 29.1 µM [falling, single point] | 18.4 µM [falling, single point] |

Looked up above:
In AC50 [2], CC1CCCCC1NS(=O)(=O)CCNC(=O)c1ccc2c(c1)OCO2 (centres undefined) shows 18.4 µM [falling, single point]
In AC50 [1], Cc1ccc(C(=O)N2CCCC(CCC(=O)N3CCN(c4ccccn4)CC3)C2)cc1 (centres undefined) shows 6.51 µM [falling, single point]
In AC50 [1], CCN(CC)c1ccc(/C=C(/C#N)c2nc3ccccc3[nH]2)c(OC(C)C)c1 shows 0.651 µM [falling, full curve]

An excerpt from above in order of length of the SMILES, low to high:

| Structure (SMILES) | cell number change | AC50 [1] | AC50 [2] |
| --- | --- | --- | --- |
| Cc1ccc(OCC(=O)NCCN2CCOCC2)cc1C | 34% |  | 20.6 µM [rising, single point] |
| COc1ccc(Nc2nc(-c3ccccc3)nc3ccccc23)cc1 | 17.1% | 13 µM [rising, partial curve] |  |
| CCOP(=O)(OCC)/C(=N/OC(=O)c1ccc(OC)cc1)C(N)=O | -19.4% | 18.4 µM [falling, single point] |  |
